Compound in the assay: CCc1cnccc1C(=O)Nc1cc2c(cc1F)NC(=O)CC2
In words: melting temperature shift (DMSO Tm minus MBE1-treated Tm) in cellular thermal proteome profiling; higher = less thermal stabilization by MBE1 (negative = stabilized by MBE1). Particulars: A375.

Sequences of proteins named here, by UniProt entry; tags and fusion partners are left off. A change or cut given only in a name is not applied to a line headed by its entry.
UniProt Q13557, whole entry: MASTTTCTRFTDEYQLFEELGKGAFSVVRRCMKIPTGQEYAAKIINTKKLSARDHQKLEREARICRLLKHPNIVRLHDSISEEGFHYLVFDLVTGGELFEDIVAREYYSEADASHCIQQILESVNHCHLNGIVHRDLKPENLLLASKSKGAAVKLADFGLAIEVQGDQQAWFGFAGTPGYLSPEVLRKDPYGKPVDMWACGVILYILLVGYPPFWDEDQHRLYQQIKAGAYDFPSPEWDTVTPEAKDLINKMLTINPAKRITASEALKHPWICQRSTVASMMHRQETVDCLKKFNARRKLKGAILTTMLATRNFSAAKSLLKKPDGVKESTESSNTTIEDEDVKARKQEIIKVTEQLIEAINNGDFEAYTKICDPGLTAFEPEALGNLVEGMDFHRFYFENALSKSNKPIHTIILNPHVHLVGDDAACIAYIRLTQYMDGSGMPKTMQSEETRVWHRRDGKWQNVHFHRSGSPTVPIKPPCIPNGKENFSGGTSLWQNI
UniProt Q13637: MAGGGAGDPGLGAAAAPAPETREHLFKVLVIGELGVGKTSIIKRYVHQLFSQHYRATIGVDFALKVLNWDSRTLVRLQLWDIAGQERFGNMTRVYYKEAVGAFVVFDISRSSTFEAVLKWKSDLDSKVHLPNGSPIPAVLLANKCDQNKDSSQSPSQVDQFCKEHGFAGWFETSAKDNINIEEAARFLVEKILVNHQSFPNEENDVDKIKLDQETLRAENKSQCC
UniProt Q13347, whole entry: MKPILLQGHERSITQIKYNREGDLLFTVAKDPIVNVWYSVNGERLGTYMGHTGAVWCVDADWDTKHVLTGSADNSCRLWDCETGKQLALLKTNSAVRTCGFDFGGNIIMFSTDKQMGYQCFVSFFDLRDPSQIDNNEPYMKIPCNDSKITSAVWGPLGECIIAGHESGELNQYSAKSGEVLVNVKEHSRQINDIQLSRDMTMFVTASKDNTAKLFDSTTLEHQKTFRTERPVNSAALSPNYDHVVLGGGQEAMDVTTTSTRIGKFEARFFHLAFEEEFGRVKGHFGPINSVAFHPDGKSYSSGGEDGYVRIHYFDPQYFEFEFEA
UniProt Q13404: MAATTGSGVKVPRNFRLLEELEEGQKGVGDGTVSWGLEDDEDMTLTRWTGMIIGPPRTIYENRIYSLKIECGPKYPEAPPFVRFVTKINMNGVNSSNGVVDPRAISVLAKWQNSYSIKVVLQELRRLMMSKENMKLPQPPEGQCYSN
UniProt Q14181: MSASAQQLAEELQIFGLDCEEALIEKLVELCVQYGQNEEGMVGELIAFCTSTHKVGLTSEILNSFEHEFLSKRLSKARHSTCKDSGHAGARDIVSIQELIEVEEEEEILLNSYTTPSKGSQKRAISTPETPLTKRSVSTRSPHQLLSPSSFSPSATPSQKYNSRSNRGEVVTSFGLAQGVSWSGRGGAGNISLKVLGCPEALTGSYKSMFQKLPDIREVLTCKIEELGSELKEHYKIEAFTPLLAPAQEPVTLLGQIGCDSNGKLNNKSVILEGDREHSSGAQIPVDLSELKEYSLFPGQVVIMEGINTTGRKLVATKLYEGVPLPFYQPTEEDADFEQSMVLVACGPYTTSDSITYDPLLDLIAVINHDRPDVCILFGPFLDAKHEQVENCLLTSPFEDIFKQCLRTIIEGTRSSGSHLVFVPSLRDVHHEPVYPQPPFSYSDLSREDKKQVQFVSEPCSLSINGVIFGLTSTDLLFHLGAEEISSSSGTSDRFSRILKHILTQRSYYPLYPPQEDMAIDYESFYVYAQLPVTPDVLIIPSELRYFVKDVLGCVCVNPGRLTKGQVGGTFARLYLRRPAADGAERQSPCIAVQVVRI
UniProt Q13564: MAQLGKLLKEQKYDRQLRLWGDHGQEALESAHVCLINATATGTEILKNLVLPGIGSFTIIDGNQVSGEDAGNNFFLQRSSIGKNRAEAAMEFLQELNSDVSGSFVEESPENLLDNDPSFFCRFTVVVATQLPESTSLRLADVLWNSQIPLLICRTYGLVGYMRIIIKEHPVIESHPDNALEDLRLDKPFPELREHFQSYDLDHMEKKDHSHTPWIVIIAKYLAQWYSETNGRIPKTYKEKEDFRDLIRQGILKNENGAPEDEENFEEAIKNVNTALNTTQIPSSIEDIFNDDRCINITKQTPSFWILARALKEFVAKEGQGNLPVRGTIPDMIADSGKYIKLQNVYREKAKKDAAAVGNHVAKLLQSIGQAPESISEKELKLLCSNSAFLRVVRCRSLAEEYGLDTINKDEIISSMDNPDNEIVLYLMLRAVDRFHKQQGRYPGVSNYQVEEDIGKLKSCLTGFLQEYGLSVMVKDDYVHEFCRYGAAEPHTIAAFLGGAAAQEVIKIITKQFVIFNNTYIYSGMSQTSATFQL
UniProt Q15004: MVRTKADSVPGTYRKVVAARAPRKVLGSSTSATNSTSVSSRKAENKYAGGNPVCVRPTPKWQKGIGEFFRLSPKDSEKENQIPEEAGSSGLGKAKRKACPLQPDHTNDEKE
UniProt Q13884: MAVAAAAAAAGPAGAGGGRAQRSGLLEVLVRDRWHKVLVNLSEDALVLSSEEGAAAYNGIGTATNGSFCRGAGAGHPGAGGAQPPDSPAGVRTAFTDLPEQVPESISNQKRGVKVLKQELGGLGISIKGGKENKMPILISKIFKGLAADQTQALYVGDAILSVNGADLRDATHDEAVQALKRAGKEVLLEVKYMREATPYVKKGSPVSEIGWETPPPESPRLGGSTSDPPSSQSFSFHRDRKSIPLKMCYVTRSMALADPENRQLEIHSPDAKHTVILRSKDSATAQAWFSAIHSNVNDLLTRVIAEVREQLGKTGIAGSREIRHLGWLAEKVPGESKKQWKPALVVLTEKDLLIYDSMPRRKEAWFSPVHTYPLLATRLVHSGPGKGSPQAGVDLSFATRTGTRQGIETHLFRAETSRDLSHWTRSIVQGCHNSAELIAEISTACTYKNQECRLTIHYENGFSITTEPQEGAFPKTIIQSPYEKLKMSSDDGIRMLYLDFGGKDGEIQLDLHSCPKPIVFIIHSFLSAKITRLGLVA
UniProt Q13555: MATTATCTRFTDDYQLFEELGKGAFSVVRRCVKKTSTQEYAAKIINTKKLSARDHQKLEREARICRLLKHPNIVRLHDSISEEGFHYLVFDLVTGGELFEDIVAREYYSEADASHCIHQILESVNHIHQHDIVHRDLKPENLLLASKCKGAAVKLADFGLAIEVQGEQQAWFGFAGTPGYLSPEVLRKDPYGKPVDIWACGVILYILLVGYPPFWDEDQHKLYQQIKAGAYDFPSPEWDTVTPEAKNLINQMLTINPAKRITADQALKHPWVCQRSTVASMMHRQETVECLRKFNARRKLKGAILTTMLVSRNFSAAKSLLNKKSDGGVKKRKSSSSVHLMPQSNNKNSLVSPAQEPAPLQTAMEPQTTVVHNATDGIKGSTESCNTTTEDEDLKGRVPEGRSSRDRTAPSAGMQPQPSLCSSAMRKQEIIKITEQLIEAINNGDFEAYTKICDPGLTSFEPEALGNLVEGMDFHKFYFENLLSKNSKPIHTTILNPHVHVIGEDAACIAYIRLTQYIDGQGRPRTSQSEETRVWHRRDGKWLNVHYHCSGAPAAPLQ
UniProt Q13352: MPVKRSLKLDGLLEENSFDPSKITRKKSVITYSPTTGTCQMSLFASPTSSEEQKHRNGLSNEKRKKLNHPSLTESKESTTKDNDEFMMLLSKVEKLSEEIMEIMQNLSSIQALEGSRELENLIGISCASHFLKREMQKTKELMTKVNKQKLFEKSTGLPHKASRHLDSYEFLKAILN
UniProt Q13057: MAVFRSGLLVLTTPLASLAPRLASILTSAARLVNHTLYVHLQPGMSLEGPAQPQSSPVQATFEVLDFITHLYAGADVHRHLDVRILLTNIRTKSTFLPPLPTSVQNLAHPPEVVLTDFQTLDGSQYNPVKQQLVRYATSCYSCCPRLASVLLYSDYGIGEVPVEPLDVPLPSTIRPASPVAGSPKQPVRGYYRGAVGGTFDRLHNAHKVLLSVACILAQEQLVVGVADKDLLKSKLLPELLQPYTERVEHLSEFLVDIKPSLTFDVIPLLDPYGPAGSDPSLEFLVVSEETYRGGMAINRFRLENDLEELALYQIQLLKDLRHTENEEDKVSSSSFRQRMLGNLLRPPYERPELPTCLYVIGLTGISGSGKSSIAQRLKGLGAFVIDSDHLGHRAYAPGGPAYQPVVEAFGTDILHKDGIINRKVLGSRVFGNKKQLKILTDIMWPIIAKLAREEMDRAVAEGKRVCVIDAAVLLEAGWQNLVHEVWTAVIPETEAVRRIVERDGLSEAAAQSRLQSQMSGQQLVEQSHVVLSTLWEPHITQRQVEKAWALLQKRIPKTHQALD
UniProt Q13523: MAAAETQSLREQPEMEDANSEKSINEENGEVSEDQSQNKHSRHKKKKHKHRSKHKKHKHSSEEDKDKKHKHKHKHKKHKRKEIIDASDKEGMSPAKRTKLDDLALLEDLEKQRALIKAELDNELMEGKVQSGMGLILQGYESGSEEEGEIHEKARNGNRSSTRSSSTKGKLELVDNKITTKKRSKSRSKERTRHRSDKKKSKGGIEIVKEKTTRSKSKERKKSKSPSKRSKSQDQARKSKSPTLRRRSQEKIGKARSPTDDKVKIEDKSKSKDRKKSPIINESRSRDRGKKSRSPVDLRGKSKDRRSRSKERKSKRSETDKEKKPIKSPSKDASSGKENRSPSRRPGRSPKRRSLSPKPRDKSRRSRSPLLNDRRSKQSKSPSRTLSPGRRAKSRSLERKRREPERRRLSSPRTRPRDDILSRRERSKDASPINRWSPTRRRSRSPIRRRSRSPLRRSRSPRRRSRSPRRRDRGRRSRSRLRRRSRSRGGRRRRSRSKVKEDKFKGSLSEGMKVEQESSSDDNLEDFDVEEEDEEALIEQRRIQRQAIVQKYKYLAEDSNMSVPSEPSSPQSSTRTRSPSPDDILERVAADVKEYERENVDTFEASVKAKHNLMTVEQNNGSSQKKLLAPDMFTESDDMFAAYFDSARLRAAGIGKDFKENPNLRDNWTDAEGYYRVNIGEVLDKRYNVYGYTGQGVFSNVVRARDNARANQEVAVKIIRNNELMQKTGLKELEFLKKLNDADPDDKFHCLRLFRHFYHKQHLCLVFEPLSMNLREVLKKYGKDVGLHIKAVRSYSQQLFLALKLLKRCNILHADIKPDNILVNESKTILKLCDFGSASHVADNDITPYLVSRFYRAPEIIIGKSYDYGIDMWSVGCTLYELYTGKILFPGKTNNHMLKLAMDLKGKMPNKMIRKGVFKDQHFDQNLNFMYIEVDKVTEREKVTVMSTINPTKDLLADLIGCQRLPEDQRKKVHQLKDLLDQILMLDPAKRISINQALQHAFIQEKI
UniProt Q13283, whole entry, looked up: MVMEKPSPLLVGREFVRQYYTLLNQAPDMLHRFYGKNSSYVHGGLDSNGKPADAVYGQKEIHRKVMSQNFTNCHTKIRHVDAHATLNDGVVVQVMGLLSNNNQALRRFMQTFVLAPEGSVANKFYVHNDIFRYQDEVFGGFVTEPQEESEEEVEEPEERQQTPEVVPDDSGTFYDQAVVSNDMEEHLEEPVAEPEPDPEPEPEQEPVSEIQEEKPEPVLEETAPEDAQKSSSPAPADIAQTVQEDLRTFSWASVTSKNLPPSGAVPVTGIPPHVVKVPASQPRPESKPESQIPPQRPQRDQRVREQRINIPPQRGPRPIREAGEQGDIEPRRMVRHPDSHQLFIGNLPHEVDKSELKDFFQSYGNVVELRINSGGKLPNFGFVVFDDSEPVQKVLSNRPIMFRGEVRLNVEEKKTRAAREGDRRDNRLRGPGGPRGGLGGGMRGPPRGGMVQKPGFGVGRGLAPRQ
UniProt Q14691: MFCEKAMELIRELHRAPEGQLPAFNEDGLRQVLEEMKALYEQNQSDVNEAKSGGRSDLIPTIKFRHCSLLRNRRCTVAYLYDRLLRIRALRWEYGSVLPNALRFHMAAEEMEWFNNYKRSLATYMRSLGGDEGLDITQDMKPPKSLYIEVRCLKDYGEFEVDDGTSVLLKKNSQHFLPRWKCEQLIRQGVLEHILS
UniProt Q13049: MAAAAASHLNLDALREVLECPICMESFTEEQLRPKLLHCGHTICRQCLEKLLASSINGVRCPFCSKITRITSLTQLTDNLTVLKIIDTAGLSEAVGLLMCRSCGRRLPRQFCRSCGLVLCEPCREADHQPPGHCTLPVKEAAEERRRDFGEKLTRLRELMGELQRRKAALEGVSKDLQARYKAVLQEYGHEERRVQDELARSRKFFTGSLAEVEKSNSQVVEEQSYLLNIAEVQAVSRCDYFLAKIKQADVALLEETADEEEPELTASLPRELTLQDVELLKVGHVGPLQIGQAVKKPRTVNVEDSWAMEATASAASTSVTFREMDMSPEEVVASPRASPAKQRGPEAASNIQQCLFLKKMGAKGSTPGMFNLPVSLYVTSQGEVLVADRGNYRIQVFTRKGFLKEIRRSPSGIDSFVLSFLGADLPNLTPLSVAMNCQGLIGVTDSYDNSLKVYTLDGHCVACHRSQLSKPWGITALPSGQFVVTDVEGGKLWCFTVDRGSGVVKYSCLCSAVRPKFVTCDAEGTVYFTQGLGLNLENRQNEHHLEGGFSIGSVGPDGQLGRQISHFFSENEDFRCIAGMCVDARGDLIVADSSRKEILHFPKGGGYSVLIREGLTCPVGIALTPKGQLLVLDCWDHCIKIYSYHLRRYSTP

The list shows a part of the results. This is a noisy data set.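 Tm was set to 64 °C where no melting was found, and many curves are irregular.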

With DCTN2 (UniProt Q13561), the melting temperature shift (MBE1 concentration: 100 nM) was 1.17 °C and the melting temperature shift (MBE1 concentration: 1 uM) worked out at 0.556 °C.
Consider CAMK2D (UniProt Q13557), for which the melting temperature shift is 0.678 °C (MBE1 concentration: 100 nM) and 0.0855 °C (MBE1 concentration: 1 uM).
For the target RAB32 (UniProt Q13637), the melting temperature shift by setting is: (MBE1 concentration: 100 nM) 0.262 °C; (MBE1 concentration: 1 uM) 0.396 °C.
For the target UniProt Q14160, the melting temperature shift is, setting by setting: (MBE1 concentration: 100 nM) -0.967 °C; (MBE1 concentration: 1 uM) -0.511 °C.
Regarding UniProt Q13938, the melting temperature shift (MBE1 concentration: 100 nM) is 0.11 °C and the melting temperature shift (MBE1 concentration: 1 uM) was determined as 0.0366 °C.
As to UniProt Q13394, the melting temperature shift is, setting by setting: (MBE1 concentration: 100 nM) -0.171 °C; (MBE1 concentration: 1 uM) 0.0916 °C.
In the case of EIF3I (UniProt Q13347), the melting temperature shift by setting is: (MBE1 concentration: 100 nM) -0.442 °C; (MBE1 concentration: 1 uM) -0.489 °C.
Turning to DYNC1H1 (UniProt Q14204), the melting temperature shift runs as follows: (MBE1 concentration: 100 nM) 0.104 °C; (MBE1 concentration: 1 uM) 0.605 °C.
With PUM1 (UniProt Q14671), the melting temperature shift is 0.385 °C (MBE1 concentration: 100 nM) and -0.305 °C (MBE1 concentration: 1 uM).
For CHD4 (UniProt Q14839), the melting temperature shift reads like this: (MBE1 concentration: 100 nM) -0.448 °C; (MBE1 concentration: 1 uM) -0.256 °C.
As to FAM175B (UniProt Q15018), the melting temperature shift was -2.4 °C (MBE1 concentration: 100 nM) and -2.4 °C (MBE1 concentration: 1 uM).
For DHX8 (UniProt Q14562), the melting temperature shift by setting is: (MBE1 concentration: 100 nM) 0.844 °C; (MBE1 concentration: 1 uM) 0.0488 °C.
With UniProt Q15052, the melting temperature shift reads like this: (MBE1 concentration: 100 nM) -0.997 °C; (MBE1 concentration: 1 uM) -0.583 °C.
As to LRP8 (UniProt Q14114), the melting temperature shift (MBE1 concentration: 100 nM) was -1.78 °C and the melting temperature shift (MBE1 concentration: 1 uM) was -2.42 °C.
Turning to CLINT1 (UniProt Q14677), the melting temperature shift (MBE1 concentration: 100 nM) came out at 0.00611 °C and the melting temperature shift (MBE1 concentration: 1 uM) turned out to be 0.94 °C.
On the same counts, the results for NAA30 (UniProt Q147X3) are 0.397 °C and 0.464 °C.
In the same order, the values of SCARB2 (UniProt Q14108) are -2.8 °C and -2.76 °C.
For UniProt Q13404, the melting temperature shift is -1.13 °C (MBE1 concentration: 100 nM) and -1.36 °C (MBE1 concentration: 1 uM).
As for MTM1 (UniProt Q13496), the melting temperature shift by setting is: (MBE1 concentration: 100 nM) -1.05 °C; (MBE1 concentration: 1 uM) 0.379 °C.
POLA2 (UniProt Q14181): the melting temperature shift is -0.047 °C (MBE1 concentration: 100 nM) and -0.71 °C (MBE1 concentration: 1 uM).
On the same counts, the results for ARHGEF7 (UniProt Q14155) are -0.532 °C and -0.772 °C.
Turning to MTMR2 (UniProt Q13614), the melting temperature shift is, setting by setting: (MBE1 concentration: 100 nM) -0.83 °C; (MBE1 concentration: 1 uM) -0.11 °C.
On the same counts, the results for EXOSC7 (UniProt Q15024) are -1.36 °C and 0.527 °C.
Regarding NAE1 (UniProt Q13564), the melting temperature shift is, setting by setting: (MBE1 concentration: 100 nM) 0.678 °C; (MBE1 concentration: 1 uM) 0.519 °C.
Regarding UniProt Q13796, the melting temperature shift (MBE1 concentration: 100 nM) is -0.324 °C and the melting temperature shift (MBE1 concentration: 1 uM) is -0.586 °C.
In the same order, the values of RCN2 (UniProt Q14257) are -1.63 °C and 0.919 °C.
For KIF22 (UniProt Q14807), the melting temperature shift reads like this: (MBE1 concentration: 100 nM) -0.34 °C; (MBE1 concentration: 1 uM) -0.269 °C.
On the same counts, the results for ITPK1 (UniProt Q13572) are 0.44 °C and 0.855 °C.
WTAP (UniProt Q15007): the melting temperature shift runs as follows: (MBE1 concentration: 100 nM) -0.574 °C; (MBE1 concentration: 1 uM) -0.546 °C.
In the case of PDIA5 (UniProt Q14554), the melting temperature shift is -0.604 °C (MBE1 concentration: 100 nM) and -0.812 °C (MBE1 concentration: 1 uM).
Take TCEB3 (UniProt Q14241): the melting temperature shift is, setting by setting: (MBE1 concentration: 100 nM) -0.269 °C; (MBE1 concentration: 1 uM) 0.0897 °C.
Regarding BIRC2 (UniProt Q13490), the melting temperature shift is, setting by setting: (MBE1 concentration: 100 nM) 0.464 °C; (MBE1 concentration: 1 uM) 0.293 °C.
In the same order, the values of TARBP1 (UniProt Q13395) are -0.443 °C and 0.733 °C.
Regarding UniProt Q14123, the melting temperature shift (MBE1 concentration: 100 nM) was -1.33 °C and the melting temperature shift (MBE1 concentration: 1 uM) is 0.588 °C.
Regarding MLEC (UniProt Q14165), the melting temperature shift is, setting by setting: (MBE1 concentration: 100 nM) -1.04 °C; (MBE1 concentration: 1 uM) -0.566 °C.
Take UniProt Q13115: the melting temperature shift runs as follows: (MBE1 concentration: 100 nM) 0.372 °C; (MBE1 concentration: 1 uM) -0.0577 °C.
Regarding ALKBH1 (UniProt Q13686), the melting temperature shift was -0.0366 °C (MBE1 concentration: 100 nM) and -0.00611 °C (MBE1 concentration: 1 uM).
Consider UniProt Q14681, for which the melting temperature shift reads like this: (MBE1 concentration: 100 nM) -0.971 °C; (MBE1 concentration: 1 uM) 0.635 °C.
For the target ITPR1 (UniProt Q14643), the melting temperature shift is -0.438 °C (MBE1 concentration: 100 nM) and -0.386 °C (MBE1 concentration: 1 uM).
Take DYRK1A (UniProt Q13627): the melting temperature shift by setting is: (MBE1 concentration: 100 nM) -0.513 °C; (MBE1 concentration: 1 uM) 0.391 °C.
Regarding KIAA0101 (UniProt Q15004), the melting temperature shift was 0.946 °C (MBE1 concentration: 100 nM) and 2.73 °C (MBE1 concentration: 1 uM).
On the same counts, the results for SNTB1 (UniProt Q13884) are -1.04 °C and -0.795 °C.
As for GAPVD1 (UniProt Q14C86), the melting temperature shift was 0.0188 °C (MBE1 concentration: 100 nM) and -0.305 °C (MBE1 concentration: 1 uM).
In the case of CAMK2G (UniProt Q13555), the melting temperature shift by setting is: (MBE1 concentration: 100 nM) -0.806 °C; (MBE1 concentration: 1 uM) -0.611 °C.
Turning to PIN1 (UniProt Q13526), the melting temperature shift was 0.855 °C (MBE1 concentration: 100 nM) and -0.385 °C (MBE1 concentration: 1 uM).
Take UniProt Q13352: the melting temperature shift (MBE1 concentration: 100 nM) is -1.18 °C and the melting temperature shift (MBE1 concentration: 1 uM) is -1.01 °C.
Consider IRF3 (UniProt Q14653), for which the melting temperature shift is, setting by setting: (MBE1 concentration: 100 nM) -0.655 °C; (MBE1 concentration: 1 uM) -0.208 °C.
CUL4B (UniProt Q13620): the melting temperature shift is -0.765 °C (MBE1 concentration: 100 nM) and 0.429 °C (MBE1 concentration: 1 uM).
Take UniProt Q14146: the melting temperature shift (MBE1 concentration: 100 nM) was -0.386 °C and the melting temperature shift (MBE1 concentration: 1 uM) was -0.146 °C.
Regarding BOP1 (UniProt Q14137), the melting temperature shift is -4.07 °C (MBE1 concentration: 100 nM) and -2.87 °C (MBE1 concentration: 1 uM).
On to SRSF9 (UniProt Q13242), for which the melting temperature shift was 2.03 °C (MBE1 concentration: 100 nM) and -0.348 °C (MBE1 concentration: 1 uM).
For the target COASY (UniProt Q13057), the melting temperature shift is -0.0141 °C (MBE1 concentration: 100 nM) and -0.315 °C (MBE1 concentration: 1 uM).
On to SNX1 (UniProt Q13596), for which the melting temperature shift was 0.134 °C (MBE1 concentration: 100 nM) and 0.0427 °C (MBE1 concentration: 1 uM).
Turning to DDX39B (UniProt Q13838), the melting temperature shift reads like this: (MBE1 concentration: 100 nM) -0.744 °C; (MBE1 concentration: 1 uM) 0.364 °C.
With PABPC4 (UniProt Q13310), the melting temperature shift amounted to 0.495 °C (MBE1 concentration: 100 nM) and 0.305 °C (MBE1 concentration: 1 uM).
In the case of UniProt Q13127, the melting temperature shift by setting is: (MBE1 concentration: 100 nM) -1.12 °C; (MBE1 concentration: 1 uM) 0.677 °C.
UNC119 (UniProt Q13432): the melting temperature shift by setting is: (MBE1 concentration: 100 nM) 0.69 °C; (MBE1 concentration: 1 uM) 0.611 °C.
On the same counts, the results for UniProt Q13523 are 0.727 °C and 0.482 °C.
In the same order, the values of G3BP1 (UniProt Q13283) are -0.434 °C and 0.263 °C.
On the same counts, the results for PTPRS (UniProt Q13332) are -2.25 °C and 0.61 °C.
Consider ESPL1 (UniProt Q14674), for which the melting temperature shift is, setting by setting: (MBE1 concentration: 100 nM) -0.917 °C; (MBE1 concentration: 1 uM) -1.09 °C.
With CUL7 (UniProt Q14999), the melting temperature shift runs as follows: (MBE1 concentration: 100 nM) -1.09 °C; (MBE1 concentration: 1 uM) -0.847 °C.
In the same order, the values of GINS1 (UniProt Q14691) are 0.666 °C and 0.629 °C.
NME3 (UniProt Q13232): the melting temperature shift was -4.16 °C (MBE1 concentration: 100 nM) and -2.49 °C (MBE1 concentration: 1 uM).
As for PAK2 (UniProt Q13177), the melting temperature shift (MBE1 concentration: 100 nM) was -1 °C and the melting temperature shift (MBE1 concentration: 1 uM) is -0.168 °C.
As for TRIM32 (UniProt Q13049), the melting temperature shift is, setting by setting: (MBE1 concentration: 100 nM) -0.55 °C; (MBE1 concentration: 1 uM) 0.761 °C.
Regarding UniProt Q13077, the melting temperature shift runs as follows: (MBE1 concentration: 100 nM) -1.36 °C; (MBE1 concentration: 1 uM) 0.745 °C.
On the same counts, the results for TRIP12 (UniProt Q14669) are -0.416 °C and -0.288 °C.
On the same counts, the results for RRS1 (UniProt Q15050) are 1.71 °C and 0.795 °C.
